The target in assay [1] is FLAG-tagged Smad4 (UniProt P97471). The assay can be described thus: co-IP.
Assay [2] has as its target T1, FLAG-tagged Nfatc1 (UniProt O88942).
T1 sequence: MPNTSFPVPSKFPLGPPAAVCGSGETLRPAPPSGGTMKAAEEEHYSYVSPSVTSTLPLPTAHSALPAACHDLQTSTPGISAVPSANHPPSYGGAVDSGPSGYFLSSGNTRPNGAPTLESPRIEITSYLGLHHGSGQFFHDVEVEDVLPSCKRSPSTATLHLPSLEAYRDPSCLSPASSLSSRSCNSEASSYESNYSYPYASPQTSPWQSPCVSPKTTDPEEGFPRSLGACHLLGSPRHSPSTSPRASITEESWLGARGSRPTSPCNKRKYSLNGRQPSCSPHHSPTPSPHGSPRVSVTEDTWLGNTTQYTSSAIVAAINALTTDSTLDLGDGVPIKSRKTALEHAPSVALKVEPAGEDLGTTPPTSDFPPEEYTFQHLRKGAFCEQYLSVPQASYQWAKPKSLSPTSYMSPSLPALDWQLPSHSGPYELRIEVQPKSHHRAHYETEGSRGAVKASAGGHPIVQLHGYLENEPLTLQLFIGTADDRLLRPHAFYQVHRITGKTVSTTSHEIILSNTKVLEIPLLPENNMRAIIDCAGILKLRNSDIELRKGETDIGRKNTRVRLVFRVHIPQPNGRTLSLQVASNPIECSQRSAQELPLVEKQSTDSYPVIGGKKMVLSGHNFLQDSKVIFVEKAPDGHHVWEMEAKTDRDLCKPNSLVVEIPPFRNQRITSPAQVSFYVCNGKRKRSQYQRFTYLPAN
As to the kind of experiment: co-IP.

Sequences of proteins named here, by UniProt entry; tags and fusion partners are left off. Residues count along the entry.
UniProt P97471, whole entry: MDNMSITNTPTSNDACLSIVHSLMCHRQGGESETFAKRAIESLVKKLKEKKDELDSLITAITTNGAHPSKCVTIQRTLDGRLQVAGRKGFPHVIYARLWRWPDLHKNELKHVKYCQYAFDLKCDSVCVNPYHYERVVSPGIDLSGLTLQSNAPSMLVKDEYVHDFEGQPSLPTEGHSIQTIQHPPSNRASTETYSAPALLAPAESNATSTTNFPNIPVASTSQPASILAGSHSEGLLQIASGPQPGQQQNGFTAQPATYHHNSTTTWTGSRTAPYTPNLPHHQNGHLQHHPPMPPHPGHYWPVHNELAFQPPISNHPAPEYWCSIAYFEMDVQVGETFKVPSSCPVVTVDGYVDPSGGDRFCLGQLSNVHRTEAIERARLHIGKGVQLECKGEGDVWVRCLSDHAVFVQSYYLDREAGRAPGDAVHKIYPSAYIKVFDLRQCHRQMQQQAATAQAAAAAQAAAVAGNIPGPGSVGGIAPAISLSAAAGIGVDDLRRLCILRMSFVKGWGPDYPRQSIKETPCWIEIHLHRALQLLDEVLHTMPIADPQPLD
UniProt Q9WV30, whole entry: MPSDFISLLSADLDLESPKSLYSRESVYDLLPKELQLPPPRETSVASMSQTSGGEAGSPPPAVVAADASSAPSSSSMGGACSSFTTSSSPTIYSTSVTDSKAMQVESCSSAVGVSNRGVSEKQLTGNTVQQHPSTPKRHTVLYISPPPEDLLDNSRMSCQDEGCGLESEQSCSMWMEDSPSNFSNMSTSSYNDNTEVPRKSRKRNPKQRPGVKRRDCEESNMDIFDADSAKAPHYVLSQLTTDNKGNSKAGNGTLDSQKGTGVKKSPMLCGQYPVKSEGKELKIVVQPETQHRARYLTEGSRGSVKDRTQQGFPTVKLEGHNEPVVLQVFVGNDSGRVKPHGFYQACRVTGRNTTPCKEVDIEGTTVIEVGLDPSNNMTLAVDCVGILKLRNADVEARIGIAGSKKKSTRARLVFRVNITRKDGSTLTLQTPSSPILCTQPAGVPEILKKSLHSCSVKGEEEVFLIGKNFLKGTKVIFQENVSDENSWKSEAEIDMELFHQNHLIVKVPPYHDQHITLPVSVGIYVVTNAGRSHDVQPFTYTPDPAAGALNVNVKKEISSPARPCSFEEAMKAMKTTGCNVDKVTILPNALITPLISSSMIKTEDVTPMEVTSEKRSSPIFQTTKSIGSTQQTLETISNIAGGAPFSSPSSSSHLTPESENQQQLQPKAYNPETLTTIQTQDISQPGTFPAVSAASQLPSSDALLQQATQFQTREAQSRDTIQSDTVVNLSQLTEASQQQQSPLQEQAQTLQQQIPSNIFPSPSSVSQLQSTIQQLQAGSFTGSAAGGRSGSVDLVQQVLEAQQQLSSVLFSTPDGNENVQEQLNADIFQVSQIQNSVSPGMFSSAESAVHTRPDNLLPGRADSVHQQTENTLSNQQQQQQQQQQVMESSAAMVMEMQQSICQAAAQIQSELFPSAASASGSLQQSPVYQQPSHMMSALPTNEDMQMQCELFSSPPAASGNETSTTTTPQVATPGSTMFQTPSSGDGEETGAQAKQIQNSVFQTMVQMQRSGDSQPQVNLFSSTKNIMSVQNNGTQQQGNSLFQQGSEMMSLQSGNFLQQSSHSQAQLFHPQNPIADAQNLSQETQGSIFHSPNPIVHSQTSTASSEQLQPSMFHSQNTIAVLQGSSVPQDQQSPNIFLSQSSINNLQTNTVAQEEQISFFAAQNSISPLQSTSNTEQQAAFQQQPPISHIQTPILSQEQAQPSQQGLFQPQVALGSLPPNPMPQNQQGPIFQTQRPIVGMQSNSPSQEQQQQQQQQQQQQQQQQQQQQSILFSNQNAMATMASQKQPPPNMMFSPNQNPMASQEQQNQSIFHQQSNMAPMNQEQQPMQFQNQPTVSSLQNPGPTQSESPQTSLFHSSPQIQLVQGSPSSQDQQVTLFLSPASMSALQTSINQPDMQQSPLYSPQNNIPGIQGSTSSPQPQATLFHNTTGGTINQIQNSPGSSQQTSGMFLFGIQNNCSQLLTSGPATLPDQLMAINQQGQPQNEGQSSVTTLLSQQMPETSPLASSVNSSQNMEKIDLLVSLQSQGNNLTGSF
UniProt P70210, whole entry: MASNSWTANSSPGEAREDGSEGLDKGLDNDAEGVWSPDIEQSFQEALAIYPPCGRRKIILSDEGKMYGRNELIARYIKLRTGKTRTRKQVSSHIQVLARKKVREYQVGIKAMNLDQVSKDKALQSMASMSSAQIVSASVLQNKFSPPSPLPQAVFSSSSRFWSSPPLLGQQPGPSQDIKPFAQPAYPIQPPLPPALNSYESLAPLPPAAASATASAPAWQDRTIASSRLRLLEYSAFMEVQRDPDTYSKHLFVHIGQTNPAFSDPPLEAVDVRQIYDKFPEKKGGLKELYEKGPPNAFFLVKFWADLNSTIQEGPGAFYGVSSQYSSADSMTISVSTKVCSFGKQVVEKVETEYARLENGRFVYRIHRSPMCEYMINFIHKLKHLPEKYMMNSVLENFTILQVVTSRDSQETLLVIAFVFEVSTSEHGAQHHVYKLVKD
UniProt Q04206, whole entry: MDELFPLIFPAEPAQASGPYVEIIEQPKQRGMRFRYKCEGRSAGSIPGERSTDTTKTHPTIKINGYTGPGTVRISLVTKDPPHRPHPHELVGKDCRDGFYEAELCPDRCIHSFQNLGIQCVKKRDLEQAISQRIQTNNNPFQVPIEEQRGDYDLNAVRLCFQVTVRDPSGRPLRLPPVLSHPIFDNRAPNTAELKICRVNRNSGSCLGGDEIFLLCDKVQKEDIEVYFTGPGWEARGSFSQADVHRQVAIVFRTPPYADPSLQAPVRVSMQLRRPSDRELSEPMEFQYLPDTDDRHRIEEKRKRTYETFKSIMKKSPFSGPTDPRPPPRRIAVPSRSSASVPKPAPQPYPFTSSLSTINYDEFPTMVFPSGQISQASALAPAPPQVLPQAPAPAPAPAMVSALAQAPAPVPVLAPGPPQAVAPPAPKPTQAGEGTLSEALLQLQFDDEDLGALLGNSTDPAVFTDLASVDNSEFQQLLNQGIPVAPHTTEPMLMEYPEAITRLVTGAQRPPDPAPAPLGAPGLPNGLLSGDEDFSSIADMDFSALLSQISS
UniProt Q04207, 19-304: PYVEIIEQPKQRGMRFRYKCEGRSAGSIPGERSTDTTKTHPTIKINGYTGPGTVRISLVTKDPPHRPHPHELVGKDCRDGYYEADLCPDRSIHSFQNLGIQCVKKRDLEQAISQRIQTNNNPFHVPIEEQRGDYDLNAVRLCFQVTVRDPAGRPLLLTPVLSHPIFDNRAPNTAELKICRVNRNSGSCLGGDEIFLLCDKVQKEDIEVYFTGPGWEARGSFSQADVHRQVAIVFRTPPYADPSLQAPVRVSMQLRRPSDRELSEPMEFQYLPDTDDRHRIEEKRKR
UniProt P25799, 1-435: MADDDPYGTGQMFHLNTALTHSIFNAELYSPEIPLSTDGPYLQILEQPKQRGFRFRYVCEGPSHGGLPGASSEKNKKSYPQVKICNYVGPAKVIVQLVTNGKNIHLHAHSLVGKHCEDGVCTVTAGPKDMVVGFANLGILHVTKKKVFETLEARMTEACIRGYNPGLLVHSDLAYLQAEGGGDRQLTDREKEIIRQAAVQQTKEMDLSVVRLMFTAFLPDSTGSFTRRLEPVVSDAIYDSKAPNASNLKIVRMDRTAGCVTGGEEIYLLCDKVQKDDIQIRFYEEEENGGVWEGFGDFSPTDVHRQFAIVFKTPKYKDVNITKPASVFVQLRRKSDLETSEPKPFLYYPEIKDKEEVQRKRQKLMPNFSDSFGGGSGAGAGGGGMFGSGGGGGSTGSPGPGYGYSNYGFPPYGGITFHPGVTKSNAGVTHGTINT

Assay [3] concerns the target FLAG-tagged Nfat5 (UniProt Q9WV30). The assay can be described thus: co-IP.
In assay [4] the target is T2, FLAG-tagged Cux1 (UniProt P53564).
T2 sequence: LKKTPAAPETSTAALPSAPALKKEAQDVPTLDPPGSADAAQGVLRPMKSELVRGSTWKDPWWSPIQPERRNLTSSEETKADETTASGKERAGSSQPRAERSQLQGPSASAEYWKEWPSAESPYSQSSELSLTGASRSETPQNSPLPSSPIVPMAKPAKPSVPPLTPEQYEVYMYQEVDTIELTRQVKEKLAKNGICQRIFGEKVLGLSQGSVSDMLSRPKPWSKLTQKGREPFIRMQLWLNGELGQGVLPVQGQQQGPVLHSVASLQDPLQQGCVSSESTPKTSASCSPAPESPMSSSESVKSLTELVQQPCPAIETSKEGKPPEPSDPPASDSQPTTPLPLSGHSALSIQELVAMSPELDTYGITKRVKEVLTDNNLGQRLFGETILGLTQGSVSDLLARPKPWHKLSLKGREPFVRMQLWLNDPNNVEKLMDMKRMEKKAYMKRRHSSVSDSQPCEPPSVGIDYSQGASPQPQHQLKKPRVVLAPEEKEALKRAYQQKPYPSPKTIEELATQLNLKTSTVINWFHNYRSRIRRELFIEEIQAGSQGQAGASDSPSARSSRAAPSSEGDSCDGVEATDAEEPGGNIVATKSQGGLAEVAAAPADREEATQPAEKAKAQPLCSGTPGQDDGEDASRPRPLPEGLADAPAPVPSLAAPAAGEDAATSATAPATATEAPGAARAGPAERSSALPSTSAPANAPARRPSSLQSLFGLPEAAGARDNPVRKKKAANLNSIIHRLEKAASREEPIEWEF
As to the kind of experiment: co-IP.

The target of assay [5] is FLAG-tagged Tead3 (UniProt P70210). The assay can be described thus: co-IP.
The target in assay [6] is Full length His-RelA (1-551) (UniProt Q04206). The assay can be described thus: SEC.
Assay [7] concerns the target untagged RelA(19-304) (UniProt Q04207). As to the kind of experiment: crystal structure.

No constants are given. Whether binding was seen depends on the method and setting. For some assays here: Binding seen in cells or lysates may run through a third protein. Some binding calls cover weakened binding; strength is not graded here. For some assays here: Where a sequence is shown, tags or fusion partners need not be part of it.

Regarding “HA-tagged RelA (from UniProt Q04206 1-551)”, the binding result in assay [1], in assay [2], in assay [3], in assay [4] and in assay [5] was “binds weakly” in each case.
As for “endogenous RelA (from UniProt Q04206 1-551)”, the binding result in assay [2] is recorded as “binds”.
For “His-tagged p50 (1-435) (from UniProt P25799 1-435) (domain or fragment)”, the binding entry in assay [6] is listed as “binds”.
For “untagged RelA(19-304) (from UniProt Q04207 19-304) (domain or fragment)”, the binding result in assay [7] is given as “binds”.

(Values after publication doi:10.1101/2024.07.03.601930.)
